According to article PMC12866826:
These are yes or no findings as the source states them, for the method shown. In cells and extracts the contact can be indirect. Some results given as binding are weak or reduced against the parent protein; the word gives no strength.

T1: TATA-box binding protein (TBP), mouse (mouse (endogenous in colonic crypt cells)) (UniProt P29037)
T1 sequence: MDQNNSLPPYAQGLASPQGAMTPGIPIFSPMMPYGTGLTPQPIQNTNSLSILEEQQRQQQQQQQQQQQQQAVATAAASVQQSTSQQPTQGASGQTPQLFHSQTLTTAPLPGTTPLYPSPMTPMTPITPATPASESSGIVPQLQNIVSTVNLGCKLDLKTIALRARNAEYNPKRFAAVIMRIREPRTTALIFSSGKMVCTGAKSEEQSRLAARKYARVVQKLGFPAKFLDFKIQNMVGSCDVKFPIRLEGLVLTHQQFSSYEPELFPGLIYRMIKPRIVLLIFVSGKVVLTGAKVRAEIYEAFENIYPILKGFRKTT


Columns and labels:
[1] = molecular target: death receptor 5 (DR5), mouse (mouse (endogenous in colonic crypt cells)) (UniProt Q9QZM4); experiment: co-IP; reciprocal; mouse colonic crypt cell lysates immunoprecipitated with anti-DR5, anti-TBP or anti-IgG, protein A/G beads, detected by western blot
[2] = molecular target: T1, TATA-box binding protein (TBP), mouse (mouse (endogenous in colonic crypt cells)); experiment: as above

Binder	binding [1]	binding [2]
TATA-box binding protein (TBP), mouse (protein, UniProt P29037 1-316) MDQNNSLPPYAQGLASPQGAMTPGIPIFSPMMPYGTGLTPQPIQNTNSLSILEEQQRQQQQQQQQQQQQQAVATAAASVQQSTSQQPTQGASGQTPQLFHSQTLTTAPLPGTTPLYPSPMTPMTPITPATPASESSGIVPQLQNIVSTVNLGCKLDLKTIALRARNAEYNPKRFAAVIMRIREPRTTALIFSSGKMVCTGAKSEEQSRLAARKYARVVQKLGFPAKFLDFKIQNMVGSCDVKFPIRLEGLVLTHQQFSSYEPELFPGLIYRMIKPRIVLLIFVSGKVVLTGAKVRAEIYEAFENIYPILKGFRKTT	binds	
death receptor 5 (DR5), mouse (receptor, UniProt Q9QZM4 53-381) NPAHNRPAGLQRPEESPSRGPCLAGQYLSEGNCKPCREGIDYTSHSNHSLDSCILCTVCKEDKVVETRCNITTNTVCRCKPGTFEDKDSPEICQSCSNCTDGEEELTSCTPRENRKCVSKTAWASWHKLGLWIGLLVPVVLLIGALLVWKTGAWRQWLLCIKRGCERDPESANSVHSSLLDRQTSSTTNDSNHNTEPGKTQKTGKKLLVPVNGNDSADDLKFIFEYCSDIVPFDSWNRLMRQLGLTDNQIQMVKAETLVTREALYQMLLKWRHQTGRSASINHLLDALEAVEERDAMEKIEDYAVKSGRFTYQNAAAQPETGPGGSQCV		binds
